No constants are given. Whether binding was seen depends on the method and setting. In cells and extracts the contact can be indirect. Some binding calls cover weakened binding; strength is not graded here.

Sequences of proteins named here, by UniProt entry; tags and fusion partners are left off. Residues count along the entry.
UniProt Q9UBP4, residues 22-350: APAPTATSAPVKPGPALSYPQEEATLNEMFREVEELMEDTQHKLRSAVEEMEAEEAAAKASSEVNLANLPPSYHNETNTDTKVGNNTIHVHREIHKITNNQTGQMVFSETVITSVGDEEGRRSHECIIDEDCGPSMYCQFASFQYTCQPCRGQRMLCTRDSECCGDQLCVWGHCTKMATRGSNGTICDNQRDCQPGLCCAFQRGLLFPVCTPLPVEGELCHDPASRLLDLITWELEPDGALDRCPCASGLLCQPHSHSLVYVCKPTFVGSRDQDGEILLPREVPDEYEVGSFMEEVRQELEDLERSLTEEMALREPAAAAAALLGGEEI
UniProt Q01974, residues 34-943: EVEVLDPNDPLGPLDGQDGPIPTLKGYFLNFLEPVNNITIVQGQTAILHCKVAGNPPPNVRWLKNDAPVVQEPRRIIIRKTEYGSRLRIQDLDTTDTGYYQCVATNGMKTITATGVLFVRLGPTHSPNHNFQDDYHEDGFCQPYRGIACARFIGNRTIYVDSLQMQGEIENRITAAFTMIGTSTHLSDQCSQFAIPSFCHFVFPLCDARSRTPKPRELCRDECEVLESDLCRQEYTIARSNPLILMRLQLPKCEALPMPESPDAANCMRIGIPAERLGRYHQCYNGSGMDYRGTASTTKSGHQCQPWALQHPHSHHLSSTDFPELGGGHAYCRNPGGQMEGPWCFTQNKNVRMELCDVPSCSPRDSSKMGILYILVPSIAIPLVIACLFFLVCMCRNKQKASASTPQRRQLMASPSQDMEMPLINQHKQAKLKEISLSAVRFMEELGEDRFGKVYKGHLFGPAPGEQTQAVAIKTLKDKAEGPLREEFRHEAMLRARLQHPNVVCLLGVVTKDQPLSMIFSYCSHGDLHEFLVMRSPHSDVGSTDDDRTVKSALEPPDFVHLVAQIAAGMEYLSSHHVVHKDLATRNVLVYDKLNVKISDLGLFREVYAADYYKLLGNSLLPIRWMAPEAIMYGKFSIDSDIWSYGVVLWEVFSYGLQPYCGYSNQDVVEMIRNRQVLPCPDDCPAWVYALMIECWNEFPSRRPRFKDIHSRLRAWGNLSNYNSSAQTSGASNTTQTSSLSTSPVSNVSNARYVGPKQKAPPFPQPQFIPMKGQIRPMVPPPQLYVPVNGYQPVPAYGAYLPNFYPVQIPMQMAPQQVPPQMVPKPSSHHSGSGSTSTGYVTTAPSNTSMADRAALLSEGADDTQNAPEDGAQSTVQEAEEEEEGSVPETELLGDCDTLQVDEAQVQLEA

Assay [1] concerns the target recombinant human dickkopf-related protein 3 (DKK3) (human) (UniProt Q9UBP4). Kind of assay: co-IP; HUVECs stimulated with recombinant DKK3; immunoprecipitation of DKK3, Western blot analysis; only the target purified.
For assay [2], the target named is human HA-tagged DKK3 secreted by adenovirus-transduced CHO cells (human) (UniProt Q9UBP4). Kind of assay: co-IP; HUVECs stimulated with DKK3-CHO SN (supernatant of CHO cells overexpressing HA-tagged DKK3); immunoprecipitation of HA-binding protein, Western blot analysis. On the technique in general: A western blot detects proteins with antibodies after separation by electrophoresis.

Take “tyrosine kinase receptor ROR2 (from UniProt Q01974 34-943)”: the binding entry in assay [1] and in assay [2] was “binds” each time.

The record behind these values is paper PMC5598907.
